Laboratory results taken from US20240067738A1.
No constants are given. Whether binding was seen depends on the method and setting. Some entries that bind do so weakly or less than the wild type.

T1: canine IL4R (Examples 16, 18 and 19; construct not stated) (canine)
T1 sequence (chain, biotinylated; sites not stated): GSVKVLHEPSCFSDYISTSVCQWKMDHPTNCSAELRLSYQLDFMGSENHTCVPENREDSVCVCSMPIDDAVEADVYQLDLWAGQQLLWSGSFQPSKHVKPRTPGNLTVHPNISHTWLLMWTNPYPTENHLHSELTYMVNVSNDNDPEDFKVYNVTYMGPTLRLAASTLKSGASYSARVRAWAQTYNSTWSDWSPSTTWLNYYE


Biological target: T1, canine IL4R (Examples 16, 18 and 19; construct not stated) (canine)
Test: neutralization (canine IL4-blocking) ELISA

| Binder | binding |
| --- | --- |
| M3 mouse monoclonal antibody (antibody, V domains shown) VH: QVQLKESGPGLVAPSQSLSITCTVSGFSLSRYSVHWVRQPPGKGLEWLGMIWGGGSTDYNSVFKSRLSISKDNSKSQVFLKMNSLQTDDTAMYYCARTYRGYALDYWGQGTSVTVSS VL: DIQMTQTTSSLSASLGDRVTISCRASQDISNYLNWYQQKPDGTVKLLIYYTSRLQSGVPSRFSGSGSGTDYCLTISNLEQEDIATYFCQQANTLPLTFGSGTKLELK | binds |
| M5 mouse monoclonal antibody (antibody, V domains shown) VH: QVQLKESGPGLVAPSQSLSITCTVSGFSLSRYSVHWVRQPPGKGLEWLGMIWGGGSTDYNSVFKSRLSISKDNSKSQVFLKMNSLQTDDTAMYYCARTYRGYALDYWGQGTSVTVSS VL: DIQMTQTTSSLSASLGDRVTISCRASQDISNYLNWYQQKPDGTVKLLIYYTSRLQSGVPSRFSGSGSGTDYCLTISNLEQEDIATYFCQQANTLPLTFGSGTKLELK | binds |
| M8 mouse monoclonal antibody (antibody, V domains shown) VH: QVQLQQSGPELVKPGALVKISCKASGYTFTSYDINWVKQRPGQGLEWIGWIYPGDGSTKYNEKFKGKATLTADKSSSTAYMQLSSLTSEDSAVYFCARSSFVVWGAGTTVTVSS VL: DIQMTQSSSYLSVSLGGRVTITCKASDPINNWLAWYQQKPGNAPRLLISGATSLETGVPSRISGSGSGKDYSLSITSLQTEDIATYYCHQYWSIPYTFGGGTKLEIK | binds |
| M9 mouse monoclonal antibody (antibody, V domains shown) VH: DVQLVESGGGLVQPGGSRKLSCAASGFTFSSFGMHWVRQAPEKGLEWVAYIRSDSSTIYYADTVKGRFTISRDNPKNTLFLQMTSLRSEDTAMYYCARSGYYGSFSLTYWGQGTLVTVSA VL: EIVLTQSPTTMAASPGEKITITCSASSSVSSNYLHWYQQKPGFSPKLLIYRTSNLPSGVPARFFGSGSGTSYSLTIGTMEAEDVATYYCQQGSGMLTFGAGTKLELK | binds |
